Paper PMC5461540, “MOB1 Mediated Phospho-recognition in the Core Mammalian Hippo Pathway” (Molecular & Cellular Proteomics : MCP, 2017)

Target: T1, GST-MOB4 wild-type (human) (UniProt Q9Y3A3)
T1 sequence: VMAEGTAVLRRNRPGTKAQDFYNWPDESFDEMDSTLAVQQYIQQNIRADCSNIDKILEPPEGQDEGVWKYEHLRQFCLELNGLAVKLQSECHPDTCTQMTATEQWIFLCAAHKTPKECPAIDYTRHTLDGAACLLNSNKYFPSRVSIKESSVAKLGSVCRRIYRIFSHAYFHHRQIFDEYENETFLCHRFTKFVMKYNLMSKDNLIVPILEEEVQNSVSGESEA
Assay: affinity purification with mass spectrometry; GST-MOB4 WT or RRR→AAA on glutathione beads, 2 mg lysate of okadaic acid-treated HeLa cells, 2 h at 4 °C; SAINTexpress scoring against glutathione resin alone; only the target purified

binding: binds
B1: MST2 (endogenous, HeLa) (protein, UniProt Q13188-1 1-491)
chain: MEQPPAPKSKLKKLSEDSLTKQPEEVFDVLEKLGEGSYGSVFKAIHKESGQVVAIKQVPVESDLQEIIKEISIMQQCDSPYVVKYYGSYFKNTDLWIVMEYCGAGSVSDIIRLRNKTLIEDEIATILKSTLKGLEYLHFMRKIHRDIKAGNILLNTEGHAKLADFGVAGQLTDTMAKRNTVIGTPFWMAPEVIQEIGYNCVADIWSLGITSIEMAEGKPPYADIHPMRAIFMIPTNPPPTFRKPELWSDDFTDFVKKCLVKNPEQRATATQLLQHPFIKNAKPVSILRDLITEAMEIKAKRHEEQQRELEEEEENSDEDELDSHTMVKTSVESVGTMRATSTMSEGAQTMIEHNSTMLESDLGTMVINSEDEEEEDGTMKRNATSPQVQRPSFMDYFDKQDFKNKSHENCNQNMHEPFPMSKNVFPDNWKVPQDGDFDFLKNLSLEELQMRLKALDPMMEREIEELRQRYTAKRQPILDAMDAKKRRQQNF

No constants are given. Whether binding was seen depends on the method and setting. In cells and extracts the contact can be indirect. A yes stands for co-enrichment or nearness to the bait. Other partners may have been found. Tags and fused reporters may be left off the sequences shown.
